The other results are listed elsewhere or left out.
Compound: CC1Cc2ccccc2N1C(=O)C1CCCN(C1)C(=O)CCl (mixture of isomers) [TRIM25 ligand 11 (diastereomer mixture)]
Test: probe-labelled cysteine peptide fold change vs DMSO (competition) (log2 fold change); higher = less target engagement (more negative = stronger competition)
Conditions: THP-1, incubation time: 4 h
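Further: competitive chemoproteomic profiling in live THP-1 cells with an iodoacetamide desthiobiotin (IA-DTB) probe, comparing probe-labelled peptide intensities in compound-treated cells against DMSO-treated controls.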

By UniProt entry, the sequences of proteins in these tests, tags left out. Where a name states a change or a piece, a line headed by the entry shows the natural chain unless it says otherwise.
UniProt P23526: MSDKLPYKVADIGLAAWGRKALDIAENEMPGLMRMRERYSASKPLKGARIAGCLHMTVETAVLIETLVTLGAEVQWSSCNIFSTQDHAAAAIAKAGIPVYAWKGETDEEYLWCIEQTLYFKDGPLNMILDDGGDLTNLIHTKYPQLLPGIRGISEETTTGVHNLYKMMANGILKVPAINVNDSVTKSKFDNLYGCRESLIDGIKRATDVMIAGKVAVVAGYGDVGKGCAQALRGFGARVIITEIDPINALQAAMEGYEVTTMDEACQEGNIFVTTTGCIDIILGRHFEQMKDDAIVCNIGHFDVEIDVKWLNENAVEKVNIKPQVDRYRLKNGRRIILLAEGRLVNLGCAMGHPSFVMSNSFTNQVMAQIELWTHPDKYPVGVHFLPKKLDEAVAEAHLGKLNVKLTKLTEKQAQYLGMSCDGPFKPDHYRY
UniProt Q9UJX3, whole entry, looked up: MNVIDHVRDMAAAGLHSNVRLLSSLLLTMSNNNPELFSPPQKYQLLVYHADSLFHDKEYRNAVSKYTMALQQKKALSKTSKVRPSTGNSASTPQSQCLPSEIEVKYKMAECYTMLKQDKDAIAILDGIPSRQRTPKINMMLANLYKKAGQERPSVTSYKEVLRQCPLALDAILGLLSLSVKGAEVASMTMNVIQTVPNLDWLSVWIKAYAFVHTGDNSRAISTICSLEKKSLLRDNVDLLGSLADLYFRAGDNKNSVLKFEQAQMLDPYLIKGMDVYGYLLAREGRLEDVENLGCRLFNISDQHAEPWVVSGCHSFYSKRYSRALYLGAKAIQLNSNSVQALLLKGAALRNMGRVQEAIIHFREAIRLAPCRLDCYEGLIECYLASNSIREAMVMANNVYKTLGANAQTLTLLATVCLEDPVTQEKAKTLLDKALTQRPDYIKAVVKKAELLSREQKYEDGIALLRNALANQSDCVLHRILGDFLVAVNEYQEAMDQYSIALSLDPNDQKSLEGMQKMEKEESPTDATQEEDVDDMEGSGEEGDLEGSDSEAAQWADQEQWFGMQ
UniProt Q01433: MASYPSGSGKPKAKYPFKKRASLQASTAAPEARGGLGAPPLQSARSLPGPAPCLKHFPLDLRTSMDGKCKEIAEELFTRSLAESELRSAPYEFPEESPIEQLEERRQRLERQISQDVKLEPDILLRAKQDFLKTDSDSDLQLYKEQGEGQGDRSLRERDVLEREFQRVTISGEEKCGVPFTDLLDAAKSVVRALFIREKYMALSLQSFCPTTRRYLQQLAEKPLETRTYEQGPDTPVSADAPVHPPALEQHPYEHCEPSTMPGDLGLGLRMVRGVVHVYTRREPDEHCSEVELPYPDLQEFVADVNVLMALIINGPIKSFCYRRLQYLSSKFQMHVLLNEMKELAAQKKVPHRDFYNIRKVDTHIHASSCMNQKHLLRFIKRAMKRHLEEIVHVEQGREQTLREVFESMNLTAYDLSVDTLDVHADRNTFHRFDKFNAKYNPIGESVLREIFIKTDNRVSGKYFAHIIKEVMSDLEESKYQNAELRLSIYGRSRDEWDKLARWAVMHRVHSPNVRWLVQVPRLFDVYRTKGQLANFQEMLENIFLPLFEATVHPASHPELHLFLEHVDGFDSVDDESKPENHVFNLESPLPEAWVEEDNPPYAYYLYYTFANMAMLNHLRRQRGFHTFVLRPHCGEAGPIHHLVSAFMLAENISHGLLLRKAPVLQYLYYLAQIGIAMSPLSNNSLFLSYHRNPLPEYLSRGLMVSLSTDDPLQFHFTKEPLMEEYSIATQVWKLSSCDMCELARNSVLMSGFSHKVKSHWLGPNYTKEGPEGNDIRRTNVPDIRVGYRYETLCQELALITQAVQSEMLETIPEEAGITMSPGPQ
UniProt Q9H1A4, whole entry, looked up: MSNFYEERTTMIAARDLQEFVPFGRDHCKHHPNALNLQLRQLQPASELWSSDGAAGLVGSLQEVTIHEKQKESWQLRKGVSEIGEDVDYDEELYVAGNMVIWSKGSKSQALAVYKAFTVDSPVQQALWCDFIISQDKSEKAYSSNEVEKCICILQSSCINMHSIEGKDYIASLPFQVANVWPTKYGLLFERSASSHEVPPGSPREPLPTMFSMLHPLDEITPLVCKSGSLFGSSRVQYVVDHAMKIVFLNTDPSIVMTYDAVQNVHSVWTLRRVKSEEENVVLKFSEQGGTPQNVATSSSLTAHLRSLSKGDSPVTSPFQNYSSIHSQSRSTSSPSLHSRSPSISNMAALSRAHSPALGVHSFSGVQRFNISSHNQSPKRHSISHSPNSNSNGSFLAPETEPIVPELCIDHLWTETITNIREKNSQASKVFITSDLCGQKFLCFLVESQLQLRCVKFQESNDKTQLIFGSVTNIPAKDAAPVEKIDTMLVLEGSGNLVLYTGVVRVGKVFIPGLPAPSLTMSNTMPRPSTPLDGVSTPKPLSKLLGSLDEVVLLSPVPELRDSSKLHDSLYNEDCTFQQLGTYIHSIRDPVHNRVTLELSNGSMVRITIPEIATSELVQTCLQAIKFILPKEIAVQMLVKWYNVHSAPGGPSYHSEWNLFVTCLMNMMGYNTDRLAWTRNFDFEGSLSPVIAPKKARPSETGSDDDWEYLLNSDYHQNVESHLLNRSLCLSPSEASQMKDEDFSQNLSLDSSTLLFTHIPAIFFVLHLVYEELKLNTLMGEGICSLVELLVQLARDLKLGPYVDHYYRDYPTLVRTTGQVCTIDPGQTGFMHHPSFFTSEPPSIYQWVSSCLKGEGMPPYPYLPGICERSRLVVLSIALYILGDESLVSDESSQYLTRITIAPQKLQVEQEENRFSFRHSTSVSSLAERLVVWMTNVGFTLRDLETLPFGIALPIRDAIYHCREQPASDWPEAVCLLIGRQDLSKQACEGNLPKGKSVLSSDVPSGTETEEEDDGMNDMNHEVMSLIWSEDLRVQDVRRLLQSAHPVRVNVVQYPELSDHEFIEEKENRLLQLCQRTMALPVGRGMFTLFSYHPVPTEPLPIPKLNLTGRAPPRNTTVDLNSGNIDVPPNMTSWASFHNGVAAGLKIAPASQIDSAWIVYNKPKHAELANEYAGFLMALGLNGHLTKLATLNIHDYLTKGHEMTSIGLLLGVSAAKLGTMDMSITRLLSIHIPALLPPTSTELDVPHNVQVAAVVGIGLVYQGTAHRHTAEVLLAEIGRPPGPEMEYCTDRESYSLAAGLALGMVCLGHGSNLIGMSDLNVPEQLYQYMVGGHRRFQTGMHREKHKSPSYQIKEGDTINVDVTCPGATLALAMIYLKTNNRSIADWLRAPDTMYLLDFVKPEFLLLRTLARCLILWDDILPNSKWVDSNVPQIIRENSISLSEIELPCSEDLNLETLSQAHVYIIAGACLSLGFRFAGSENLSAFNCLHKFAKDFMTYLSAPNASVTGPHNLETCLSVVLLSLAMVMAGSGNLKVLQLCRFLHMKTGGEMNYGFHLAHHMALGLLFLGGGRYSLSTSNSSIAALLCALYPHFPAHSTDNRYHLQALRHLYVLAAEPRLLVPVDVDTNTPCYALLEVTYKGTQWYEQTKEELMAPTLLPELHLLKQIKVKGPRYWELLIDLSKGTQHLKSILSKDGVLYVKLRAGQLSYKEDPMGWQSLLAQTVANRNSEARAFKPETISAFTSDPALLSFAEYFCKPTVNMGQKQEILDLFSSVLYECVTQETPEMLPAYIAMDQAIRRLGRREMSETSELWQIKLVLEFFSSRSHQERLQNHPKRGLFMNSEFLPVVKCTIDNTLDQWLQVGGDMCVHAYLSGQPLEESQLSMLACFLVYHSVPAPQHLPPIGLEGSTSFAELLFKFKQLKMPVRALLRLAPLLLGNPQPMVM
UniProt P49189: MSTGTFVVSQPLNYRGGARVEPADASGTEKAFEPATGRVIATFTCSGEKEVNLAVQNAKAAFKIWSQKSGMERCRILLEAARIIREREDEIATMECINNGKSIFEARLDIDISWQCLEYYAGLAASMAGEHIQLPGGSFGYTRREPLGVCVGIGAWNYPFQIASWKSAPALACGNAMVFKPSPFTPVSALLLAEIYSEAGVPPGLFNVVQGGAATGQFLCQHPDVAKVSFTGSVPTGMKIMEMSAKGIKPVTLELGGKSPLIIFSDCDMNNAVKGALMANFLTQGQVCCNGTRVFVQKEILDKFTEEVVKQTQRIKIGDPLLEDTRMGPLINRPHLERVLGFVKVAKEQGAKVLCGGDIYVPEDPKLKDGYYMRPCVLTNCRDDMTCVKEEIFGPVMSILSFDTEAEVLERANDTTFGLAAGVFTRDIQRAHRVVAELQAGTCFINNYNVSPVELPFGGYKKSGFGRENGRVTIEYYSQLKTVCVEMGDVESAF
UniProt O00116: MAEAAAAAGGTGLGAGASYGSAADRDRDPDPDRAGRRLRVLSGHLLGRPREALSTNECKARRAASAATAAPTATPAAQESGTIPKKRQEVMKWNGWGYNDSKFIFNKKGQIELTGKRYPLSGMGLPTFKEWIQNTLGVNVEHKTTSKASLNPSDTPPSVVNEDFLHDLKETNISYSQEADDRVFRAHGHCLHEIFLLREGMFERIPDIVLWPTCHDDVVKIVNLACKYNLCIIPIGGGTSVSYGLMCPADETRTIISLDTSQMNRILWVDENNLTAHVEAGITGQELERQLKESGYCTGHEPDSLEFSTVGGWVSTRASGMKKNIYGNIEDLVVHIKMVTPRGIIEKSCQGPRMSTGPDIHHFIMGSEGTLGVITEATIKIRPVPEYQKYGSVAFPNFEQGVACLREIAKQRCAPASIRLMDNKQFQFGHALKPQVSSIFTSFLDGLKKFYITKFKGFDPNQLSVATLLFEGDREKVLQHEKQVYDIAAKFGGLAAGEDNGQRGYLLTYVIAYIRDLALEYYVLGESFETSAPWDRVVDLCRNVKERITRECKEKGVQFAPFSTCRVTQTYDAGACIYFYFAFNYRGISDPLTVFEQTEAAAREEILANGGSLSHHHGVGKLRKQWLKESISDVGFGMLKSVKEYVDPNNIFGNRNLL
UniProt O43865, whole entry, looked up: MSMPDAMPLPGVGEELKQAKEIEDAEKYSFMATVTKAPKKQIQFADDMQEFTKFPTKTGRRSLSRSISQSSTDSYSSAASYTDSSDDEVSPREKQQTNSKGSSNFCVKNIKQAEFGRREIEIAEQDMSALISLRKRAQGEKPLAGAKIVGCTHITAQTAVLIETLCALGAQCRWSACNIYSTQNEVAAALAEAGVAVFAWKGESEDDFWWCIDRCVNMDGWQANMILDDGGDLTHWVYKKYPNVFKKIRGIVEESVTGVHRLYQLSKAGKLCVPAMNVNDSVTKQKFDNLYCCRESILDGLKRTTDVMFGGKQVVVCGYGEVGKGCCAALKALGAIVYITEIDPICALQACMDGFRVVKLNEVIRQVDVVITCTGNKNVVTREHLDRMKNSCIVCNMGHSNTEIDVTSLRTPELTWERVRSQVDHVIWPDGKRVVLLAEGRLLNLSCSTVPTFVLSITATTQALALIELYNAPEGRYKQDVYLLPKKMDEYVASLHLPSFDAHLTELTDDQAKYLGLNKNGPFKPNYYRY
UniProt Q8IZ83: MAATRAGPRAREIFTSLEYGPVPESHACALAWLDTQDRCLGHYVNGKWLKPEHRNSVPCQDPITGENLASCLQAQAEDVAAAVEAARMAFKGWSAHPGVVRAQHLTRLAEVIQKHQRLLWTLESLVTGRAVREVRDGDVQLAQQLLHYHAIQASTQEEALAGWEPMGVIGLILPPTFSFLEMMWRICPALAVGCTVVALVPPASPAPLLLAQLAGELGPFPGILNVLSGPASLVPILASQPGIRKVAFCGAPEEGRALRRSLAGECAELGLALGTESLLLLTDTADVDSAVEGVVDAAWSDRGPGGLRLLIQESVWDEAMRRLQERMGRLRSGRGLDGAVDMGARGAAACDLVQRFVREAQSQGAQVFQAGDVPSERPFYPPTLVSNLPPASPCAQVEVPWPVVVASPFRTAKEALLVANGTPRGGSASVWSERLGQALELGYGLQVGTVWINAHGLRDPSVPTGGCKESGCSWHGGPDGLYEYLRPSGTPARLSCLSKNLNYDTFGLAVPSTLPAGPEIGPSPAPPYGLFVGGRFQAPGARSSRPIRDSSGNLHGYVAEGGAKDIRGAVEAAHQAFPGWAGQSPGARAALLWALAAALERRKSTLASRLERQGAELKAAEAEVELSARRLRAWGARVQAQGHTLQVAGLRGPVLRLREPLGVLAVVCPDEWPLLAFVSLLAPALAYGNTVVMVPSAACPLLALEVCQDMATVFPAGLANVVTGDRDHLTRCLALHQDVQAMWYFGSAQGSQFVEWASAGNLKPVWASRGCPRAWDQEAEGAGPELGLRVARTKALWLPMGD
UniProt Q9NYG5, whole entry, looked up: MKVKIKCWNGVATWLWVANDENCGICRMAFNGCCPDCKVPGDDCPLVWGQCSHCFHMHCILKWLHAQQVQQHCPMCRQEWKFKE

Target | probe-labelled cysteine peptide fold change (10 µM) | probe-labelled cysteine peptide fold change (50 µM)
AHCY_P23526_297_DDAIVCNIGHFDVEIDVK (UniProt P23526) | 0.234 | 0.44
ANAPC7_Q9UJX3_509_NALANQSDCVLHR (UniProt Q9UJX3) | 0.133 | 0.036
AMPD2_Q01433_107_SLPGPAPCLK (UniProt Q01433) | -0.11 | -0.295
AKR1B1_P15121_45_HIDCAHVYQNENEVGVAIQEK (UniProt P15121) | 0.188 | 0.00649
AHRR_A9YTQ3_485_DVGEDQVHPPLCHFPQR (UniProt A9YTQ3) | 0.678 | 0.583
AKAP8L_Q9ULX6_487_KVEAAHCAACDLFIPMQFGIIQK (UniProt Q9ULX6) | -0.14 | -0.0848
ANAPC1_Q9H1A4_225_EPLPTMFSMLHPLDEITPLVCK (UniProt Q9H1A4) | 0.177 | -0.0112
ALDH3B1_P43353_162_ILAEVLPQYVDQSCFAVVLGGPQETGQLLEHR (UniProt P43353) | 0.544 | 0.376
ALDH9A1_P49189_267_SPLIIFSDCDMNNAVK (UniProt P49189) | 0.298 | 0.198
ALAS1_P13196_544_NTEVCDELMSR (UniProt P13196) | -0.0844 | 0.0505
AMPD2_Q01433_792_LSSCDMCELAR (UniProt Q01433) | 0.137 | 0.208
AK2_P54819_92_NLETPLCK (UniProt P54819) | -0.0944 | -0.0953
AKAP17A_Q02040_95_SFLACLDGK (UniProt Q02040) | -0.0826 | 0.0538
AIMP2_Q13155_23_PYHGGGAPLRVELPTCMYR (UniProt Q13155) | -0.0734 | -0.143
AGPS_O00116_214_IPDIVLWPTCHDDVVK (UniProt O00116) | -0.0325 | -0.0247
ANK3_Q12955_4233_LDDSPDQCR (UniProt Q12955) | -0.109 | 0.337
AHCY_P23526_113_GETDEEYLWCIEQTLYFK (UniProt P23526) | -0.0406 | 0.147
AKAP2_Q9Y2D5_296_RAQQEQLLLQKQLQQQQQQPPSQLCTAPASSHER (UniProt Q9Y2D5) | -0.14 | -0.0878
AGPS_O00116_226_IVNLACK (UniProt O00116) | 0.221 | 0.311
AHCYL1_O43865_373_QVDVVITCTGNK (UniProt O43865) | 0.104 | 0.0158
AHCY_P23526_297_HFEQMKDDAIVCNIGHFDVEIDVK (UniProt P23526) | -0.00275 | 0.0611

Target | probe-labelled cysteine peptide fold change (10 µM) | probe-labelled cysteine peptide fold change (50 µM)
ANAPC7_Q9UJX3_259_AISTICSLEK (UniProt Q9UJX3) | -0.0651 | -0.167
ALG11_Q2TAA5_72_NQMVIAFFHPYCNAGGGGER (UniProt Q2TAA5) | -0.0377 | -0.618
AKR1B1_P15121_304_VCALLSCTSHK (UniProt P15121) | 0.0108 | -0.134
ANAPC1_Q9H1A4_988_QACEGNLPK (UniProt Q9H1A4) | -0.07 | -0.129
ALDH3A2_P51648_220+226_DCDLDIVCR (UniProt P51648) | 0.473 | 0.274
AGPS_O00116_190_AHGHCLHEIFLLR (UniProt O00116) | 0.146 | 0.0844
AHCYL1_O43865_395_NSCIVCNMGHSNTEIDVTSLR (UniProt O43865) | 0.0985 | -0.0547
AMN1_Q8IY45_230_ILLFHGCPLITDHSR (UniProt Q8IY45) | 0.0839 | -0.038
AGPAT3_Q9NRZ7_254_KYEADMCVR (UniProt Q9NRZ7) | 0.0275 | -0.189
ALDH16A1_Q8IZ83_249_KVAFCGAPEEGR (UniProt Q8IZ83) | -0.0454 | -0.0142
AKR1B1_P15121_187_YKPAVNQIECHPYLTQEK (UniProt P15121) | 0.00538 | -0.0454
ALKBH5_Q6P6C2_378_SYESSEDCSEAAGSPARK (UniProt Q6P6C2) | -0.239 | -0.147
AHCYL1_O43865_293_QKFDNLYCCR (UniProt O43865) | -0.0935 | -0.0937
ANAPC11_Q9NYG5_51_VPGDDCPLVWGQCSHCFHMHCILK (UniProt Q9NYG5) | 0.248 | 0.203
AKAP9_Q99996_3508_LIEMNGGGTGCNHELEMIR (UniProt Q99996) | 0.0786 | -0.04
ALDH16A1_Q8IZ83_350_GAAACDLVQR (UniProt Q8IZ83) | -0.0523 | 0.0166
ALDH9A1_P49189_173_SAPALACGNAMVFK (UniProt P49189) | 0.142 | 0.123
AHNAK_Q09666_2162_LEGDLTGPSVDVEVPDVELECPDAK (UniProt Q09666) | 0.138 | -0.0439
AGO2_Q9UKV8_272_VEITHCGQMK (UniProt Q9UKV8) | 0.0349 | 0.0184
ALDOA_P04075_339_ALANSLACQGK (UniProt P04075) | -0.0633 | -0.155
ALG1_Q9BT22_317_FEQLTLDGHNLPSLVCVITGK (UniProt Q9BT22) | 0.109 | 0.159

Source: the supplement of paper PMC12067093, “Discovery and optimisation of a covalent ligand for TRIM25 and its application to targeted protein ubiquitination” (Chemical Science, 2025)
